The text below walks through data of the supplement of paper PMC12889115.

The list shows a part of the results. Values are raw readings; no control value is given beside them.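 Primary screen: polymyxin B was added at a level permeabilizing Salmonella outer membranes while sparing inner membranes. DMSO wells, both with and without polymyxin B, established maximum growth. Plate-to-plate variation meant each plate was ranked on its own, and the lowest-OD600 compounds were selected as hits.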

The test system of this assay is Salmonella enterica serovar Typhimurium SL1344. In words: bacterial growth OD600 after 18 h with compound and polymyxin B; higher = more bacterial growth (less inhibition). Particulars: 50 µM, Mueller-Hinton broth.

In the case of `Cc1ncsc1C(=O)N1CCCC(CNC(=O)c2ccc(-c3ccccc3)cc2)C1` (stereo not given), the “bacterial growth OD600” value (polymyxin B 1 µg/mL) is 0.926. As for `O=C(Cn1nnnc1CN1CCCC1)NC(c1ccccc1)c1ccc(Cl)cc1` (stereo not given), the “bacterial growth OD600” value (polymyxin B 0.75 µg/mL) turned out to be 0.533.

For `COC(=O)[C@@H]1CCCN1C(=O)Cc1ccc(N2CCC(NCCc3ccccn3)CC2)cc1`, the “bacterial growth OD600” value (polymyxin B 0.75 µg/mL) came to 0.961. With `O=C(c1ccc2c(c1)OCO2)C1CCCN(C(=O)c2csc(-c3cccs3)n2)C1` (stereo not given), the “bacterial growth OD600” value (polymyxin B 1 µg/mL) came to 0. The same measure, in the same setting: next, `COc1cccc(-c2cn3c(C(=O)N4CCN(C)C(=O)[C@@H]4C)csc3n2)c1`: 1.04.

In the case of `CN(C)c1ncccc1CNC(=O)Cn1ncc2ccccc21`, under “polymyxin B 1 µg/mL”, the “bacterial growth OD600” value came to 0.914.

For `Cc1cc(Cl)c2oc(C(=O)N(C)CCCN3CCOCC3)c(C)c2c1`, for the setting “polymyxin B 1 µg/mL”, the “bacterial growth OD600” value is 0.96.

Take `COc1ccc(/C=C/C(=O)N2CCc3c(cnc(C)c3CNC(=O)c3cccs3)C2)cc1OC`: the “bacterial growth OD600” value (polymyxin B 0.75 µg/mL) was determined as 0.823. On the same count and under the same terms, next, `COc1cc(/C=C/CN2CCOc3ccc(C(O)Cc4ccccc4)cc3C2)ccc1O` (stereo not given): 0.714. As to `CC(=O)CCC(=O)N1CCC2(CCCN(Cc3ccc(F)cc3)C2)C1` (stereo not given), where the note is “polymyxin B 1 µg/mL”, the “bacterial growth OD600” value was found to be 0.984. As to `O=C(c1ccc(N2CCC(NC(CCn3ccnc3)c3ccccc3)CC2)cc1)N1CCOCC1` (stereo not given), the “bacterial growth OD600” value (polymyxin B 0.75 µg/mL) was 0.804.

On to `COc1ccccc1CC(=O)NC1CCCc2nc(-c3ccccc3)ncc21` (stereo not given), for which the “bacterial growth OD600” value (polymyxin B 1 µg/mL) turned out to be 0.864.

Turning to `CN(Cc1cc(-c2ccccc2)on1)C(=O)CCC1(Cc2ccc3ccccc3c2)CCC(=O)N1` (stereo not given), under “polymyxin B 0.75 µg/mL”, the “bacterial growth OD600” value is 0.08. For the compound `COc1ccc(OC)c(CNC2CCCc3nc(N(C)C)ncc32)c1` (stereo not given), the “bacterial growth OD600” value (polymyxin B 0.75 µg/mL) worked out at 0.823.

For `COC(=O)[C@@H]1CCCN1c1ccc(-c2nc(-c3ccccc3F)no2)cn1`, the “bacterial growth OD600” value (polymyxin B 1 µg/mL) was found to be 0.754.

`COc1ccc(CCNC2CCN(c3ccc(C(=O)NCCN4CCOCC4)cc3)CC2)c(OC)c1`: the “bacterial growth OD600” value (polymyxin B 0.75 µg/mL) was 0.751. As to `Cc1cc(C(=O)NC2CC(=O)N(Cc3ccccc3Cl)C2)nc(C)n1` (stereo not given), the “bacterial growth OD600” value (polymyxin B 1 µg/mL) was found to be 0.851. In the case of `COc1cc(=O)n2c(c1C(=O)NCCCn1ccnc1)CCN(Cc1ccc(C(C)C)cc1)CC2`, where the note is “polymyxin B 0.75 µg/mL”, the “bacterial growth OD600” value worked out at 0.828. On the same count and under the same terms, the result for `O=C(N[C@H]1CCCCNC1=O)c1ccc(N2CCC(NCCCn3ncc4ccccc43)CC2)cc1` reads 0.992. Take `CCOC(=O)C1(Cc2ccc(OC)cc2)CCN(S(=O)(=O)c2ccc(C)cc2)CC1`: for the setting “polymyxin B 1 µg/mL”, the “bacterial growth OD600” value worked out at 0.393.

Regarding `CC(C)N1CCC(N2CC[C@@H](N3CCN(c4ccccn4)CC3)[C@H](O)C2)CC1`, the “bacterial growth OD600” value (polymyxin B 1 µg/mL) turned out to be 0.965. As to `COc1ccc(OC)c(CC(=O)N2CCOc3ccc(CN4CCN(CCO)CC4)cc3C2)c1`, where the note is “polymyxin B 0.75 µg/mL”, the “bacterial growth OD600” value is 0.788. Turning to `CCN1CCN(C2(C(=O)N3CCC(C)CC3)Cc3ccccc3C2)CC1`, the “bacterial growth OD600” value (polymyxin B 0.75 µg/mL) came to 0.745. For `Cc1c(CN(C)Cc2c(C(=O)N3C[C@@H](C)O[C@@H](C)C3)nc3sccn23)[nH]c2ccccc12`, where the note is “polymyxin B 1 µg/mL”, the “bacterial growth OD600” value was 0.956. For `Cc1cc2nc(N3CCC(C(=O)NCCC(C)C)CC3)nc(C)c2cc1C`, the “bacterial growth OD600” value (polymyxin B 0.75 µg/mL) came out at 0.728. With `O=C(CCC1(Cc2ccccc2)CCC(=O)N1)NCCc1ccccc1C(F)(F)F` (stereo not given), the “bacterial growth OD600” value (polymyxin B 0.75 µg/mL) amounted to 0.852.

Regarding `COc1ccc(CCN2CC(NC(=O)Cc3ccccc3)CC2=O)cc1` (stereo not given), the “bacterial growth OD600” value (polymyxin B 1 µg/mL) stood at 0.891.

Regarding `Cc1nccn1-c1ccc(NC(=O)C2CCCN2C2Cc3ccccc3C2)cc1` (stereo not given), the “bacterial growth OD600” value (polymyxin B 0.75 µg/mL) was 0.82. `C/C=C(\C)CN1CCCC(CCC(=O)NCc2ccc(OC)cc2OC)C1` (stereo not given): the “bacterial growth OD600” value (polymyxin B 0.75 µg/mL) was 0.807. In the case of `CC(=O)c1cc(C(=O)NC2CCCN(CCc3ccccc3)C2)cs1` (stereo not given), the “bacterial growth OD600” value (polymyxin B 0.75 µg/mL) is 0.783.
